Here are results for four substances from paper PMC6214013.

Amino acid sequences for entries named in this document (tags omitted). A change or cut given only in a name is not applied to a line headed by its entry.
UniProt P03126: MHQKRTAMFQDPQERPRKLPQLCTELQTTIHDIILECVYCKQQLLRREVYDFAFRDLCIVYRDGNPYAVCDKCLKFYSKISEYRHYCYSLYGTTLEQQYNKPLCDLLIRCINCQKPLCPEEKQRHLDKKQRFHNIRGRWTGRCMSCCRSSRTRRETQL
UniProt Q9NQB0: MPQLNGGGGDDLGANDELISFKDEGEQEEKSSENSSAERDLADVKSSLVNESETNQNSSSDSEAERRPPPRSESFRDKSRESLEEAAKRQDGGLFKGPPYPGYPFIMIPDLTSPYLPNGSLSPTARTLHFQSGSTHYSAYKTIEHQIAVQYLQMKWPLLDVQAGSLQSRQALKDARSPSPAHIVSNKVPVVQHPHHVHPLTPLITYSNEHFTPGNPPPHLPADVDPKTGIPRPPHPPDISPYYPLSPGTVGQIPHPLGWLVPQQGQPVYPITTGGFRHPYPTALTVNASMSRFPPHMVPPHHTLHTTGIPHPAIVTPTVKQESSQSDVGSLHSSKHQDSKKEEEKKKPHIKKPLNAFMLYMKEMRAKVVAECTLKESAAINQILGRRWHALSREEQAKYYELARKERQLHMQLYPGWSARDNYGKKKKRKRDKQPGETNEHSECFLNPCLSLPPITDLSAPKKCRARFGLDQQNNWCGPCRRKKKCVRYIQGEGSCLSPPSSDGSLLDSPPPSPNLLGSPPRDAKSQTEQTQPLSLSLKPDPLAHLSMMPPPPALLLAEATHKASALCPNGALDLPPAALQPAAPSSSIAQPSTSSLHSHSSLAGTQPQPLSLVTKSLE
UniProt P35222: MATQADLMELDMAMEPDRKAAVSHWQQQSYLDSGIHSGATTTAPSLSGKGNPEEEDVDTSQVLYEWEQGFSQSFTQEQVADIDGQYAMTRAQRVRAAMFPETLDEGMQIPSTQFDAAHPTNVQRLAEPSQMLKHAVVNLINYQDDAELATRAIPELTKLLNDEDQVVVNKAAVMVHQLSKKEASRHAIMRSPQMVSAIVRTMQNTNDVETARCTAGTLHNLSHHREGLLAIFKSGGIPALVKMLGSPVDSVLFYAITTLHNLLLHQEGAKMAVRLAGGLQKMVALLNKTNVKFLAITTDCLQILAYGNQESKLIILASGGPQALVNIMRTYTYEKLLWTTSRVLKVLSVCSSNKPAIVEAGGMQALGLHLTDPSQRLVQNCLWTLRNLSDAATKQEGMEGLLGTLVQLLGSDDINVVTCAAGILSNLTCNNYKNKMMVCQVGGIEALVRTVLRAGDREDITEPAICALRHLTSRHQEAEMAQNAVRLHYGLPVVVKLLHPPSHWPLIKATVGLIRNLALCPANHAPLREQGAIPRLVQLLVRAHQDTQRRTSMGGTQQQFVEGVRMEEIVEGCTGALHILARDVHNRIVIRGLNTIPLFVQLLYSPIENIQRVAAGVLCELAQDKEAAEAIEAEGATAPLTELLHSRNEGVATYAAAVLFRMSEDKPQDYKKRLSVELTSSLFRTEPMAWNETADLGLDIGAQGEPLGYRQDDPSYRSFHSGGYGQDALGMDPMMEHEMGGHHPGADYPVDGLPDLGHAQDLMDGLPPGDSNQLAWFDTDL

The target of test [1] is GST-16E6 (human papillomavirus type 16) (UniProt P03126). Nature of the test: pull-down; GST-E6 fusion proteins on glutathione sepharose beads incubated overnight with 40 µg C33A cellular protein extract; bound protein detected by western blot with anti-TCF-4 and anti-β-catenin; only the target purified.
Test [2] concerns the target GST-18E6 (human papillomavirus type 18) (UniProt P06463). The test is described as above.
Test [3] addresses TCF-4 (T cell factor 4) transcription factor (human (endogenous in C33A)) (UniProt Q9NQB0). Nature of the test: co-IP; C33A cells transfected with FLAG-E6 plasmids, 48 h; 400 µg protein extract with 1 µg anti-β-catenin or anti-TCF-4 (or IgG isotype) overnight at 4 °C, protein G-agarose 3 h, washed with PBS-0.1% NP-40; E6 proteins detected with anti-FLAG M2.
The target of test [4] is β-catenin (human (endogenous in C33A)) (UniProt P35222). The description is as above.

No constants are given. Whether binding was seen depends on the method and setting. Binding seen in cells or lysates may run through a third protein. Some results given as binding are weak or reduced against the parent protein; the word gives no strength.

In the case of “TCF-4 (T cell factor 4) transcription factor (from UniProt Q9NQB0 1-619)”, the binding result in test [1] and in test [2] was “binds” in each case.
Consider “HPV-18 E6 full-length, FLAG-tagged (reference variant E6AsAi) (from UniProt P06463 1-158)”, for which the binding result in test [3] and in test [4] was “binds” in each case.
“HPV-16 E6, FLAG-tagged (from UniProt P03126 1-158)”: the binding result in test [3] and in test [4] was “binds” in each case.
Turning to β-catenin (from UniProt P35222 1-781), the binding result in test [1] and in test [2] was “binds” throughout.
